This is one part of the list.
compound: Cc1cc(ccc1-c1ccccc1)C(=O)N1CCCN(CC1)C(=O)CCl [compound 10]; assay: probe-labelled cysteine peptide fold change vs DMSO (competition) (log2 fold change); higher = less target engagement (more negative = stronger competition); conditions: 10 µM; THP-1; incubation time: 4 h
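Also: competitive profiling in live THP-1 cells: cysteine peptides tagged with an iodoacetamide desthiobiotin (IA-DTB) probe, intensity after compound treatment relative to DMSO-treated cells.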

Sequences of proteins named here, by UniProt entry; tags and fusion partners are left off. A change or cut given only in a name is not applied to a line headed by its entry.
UniProt O95613: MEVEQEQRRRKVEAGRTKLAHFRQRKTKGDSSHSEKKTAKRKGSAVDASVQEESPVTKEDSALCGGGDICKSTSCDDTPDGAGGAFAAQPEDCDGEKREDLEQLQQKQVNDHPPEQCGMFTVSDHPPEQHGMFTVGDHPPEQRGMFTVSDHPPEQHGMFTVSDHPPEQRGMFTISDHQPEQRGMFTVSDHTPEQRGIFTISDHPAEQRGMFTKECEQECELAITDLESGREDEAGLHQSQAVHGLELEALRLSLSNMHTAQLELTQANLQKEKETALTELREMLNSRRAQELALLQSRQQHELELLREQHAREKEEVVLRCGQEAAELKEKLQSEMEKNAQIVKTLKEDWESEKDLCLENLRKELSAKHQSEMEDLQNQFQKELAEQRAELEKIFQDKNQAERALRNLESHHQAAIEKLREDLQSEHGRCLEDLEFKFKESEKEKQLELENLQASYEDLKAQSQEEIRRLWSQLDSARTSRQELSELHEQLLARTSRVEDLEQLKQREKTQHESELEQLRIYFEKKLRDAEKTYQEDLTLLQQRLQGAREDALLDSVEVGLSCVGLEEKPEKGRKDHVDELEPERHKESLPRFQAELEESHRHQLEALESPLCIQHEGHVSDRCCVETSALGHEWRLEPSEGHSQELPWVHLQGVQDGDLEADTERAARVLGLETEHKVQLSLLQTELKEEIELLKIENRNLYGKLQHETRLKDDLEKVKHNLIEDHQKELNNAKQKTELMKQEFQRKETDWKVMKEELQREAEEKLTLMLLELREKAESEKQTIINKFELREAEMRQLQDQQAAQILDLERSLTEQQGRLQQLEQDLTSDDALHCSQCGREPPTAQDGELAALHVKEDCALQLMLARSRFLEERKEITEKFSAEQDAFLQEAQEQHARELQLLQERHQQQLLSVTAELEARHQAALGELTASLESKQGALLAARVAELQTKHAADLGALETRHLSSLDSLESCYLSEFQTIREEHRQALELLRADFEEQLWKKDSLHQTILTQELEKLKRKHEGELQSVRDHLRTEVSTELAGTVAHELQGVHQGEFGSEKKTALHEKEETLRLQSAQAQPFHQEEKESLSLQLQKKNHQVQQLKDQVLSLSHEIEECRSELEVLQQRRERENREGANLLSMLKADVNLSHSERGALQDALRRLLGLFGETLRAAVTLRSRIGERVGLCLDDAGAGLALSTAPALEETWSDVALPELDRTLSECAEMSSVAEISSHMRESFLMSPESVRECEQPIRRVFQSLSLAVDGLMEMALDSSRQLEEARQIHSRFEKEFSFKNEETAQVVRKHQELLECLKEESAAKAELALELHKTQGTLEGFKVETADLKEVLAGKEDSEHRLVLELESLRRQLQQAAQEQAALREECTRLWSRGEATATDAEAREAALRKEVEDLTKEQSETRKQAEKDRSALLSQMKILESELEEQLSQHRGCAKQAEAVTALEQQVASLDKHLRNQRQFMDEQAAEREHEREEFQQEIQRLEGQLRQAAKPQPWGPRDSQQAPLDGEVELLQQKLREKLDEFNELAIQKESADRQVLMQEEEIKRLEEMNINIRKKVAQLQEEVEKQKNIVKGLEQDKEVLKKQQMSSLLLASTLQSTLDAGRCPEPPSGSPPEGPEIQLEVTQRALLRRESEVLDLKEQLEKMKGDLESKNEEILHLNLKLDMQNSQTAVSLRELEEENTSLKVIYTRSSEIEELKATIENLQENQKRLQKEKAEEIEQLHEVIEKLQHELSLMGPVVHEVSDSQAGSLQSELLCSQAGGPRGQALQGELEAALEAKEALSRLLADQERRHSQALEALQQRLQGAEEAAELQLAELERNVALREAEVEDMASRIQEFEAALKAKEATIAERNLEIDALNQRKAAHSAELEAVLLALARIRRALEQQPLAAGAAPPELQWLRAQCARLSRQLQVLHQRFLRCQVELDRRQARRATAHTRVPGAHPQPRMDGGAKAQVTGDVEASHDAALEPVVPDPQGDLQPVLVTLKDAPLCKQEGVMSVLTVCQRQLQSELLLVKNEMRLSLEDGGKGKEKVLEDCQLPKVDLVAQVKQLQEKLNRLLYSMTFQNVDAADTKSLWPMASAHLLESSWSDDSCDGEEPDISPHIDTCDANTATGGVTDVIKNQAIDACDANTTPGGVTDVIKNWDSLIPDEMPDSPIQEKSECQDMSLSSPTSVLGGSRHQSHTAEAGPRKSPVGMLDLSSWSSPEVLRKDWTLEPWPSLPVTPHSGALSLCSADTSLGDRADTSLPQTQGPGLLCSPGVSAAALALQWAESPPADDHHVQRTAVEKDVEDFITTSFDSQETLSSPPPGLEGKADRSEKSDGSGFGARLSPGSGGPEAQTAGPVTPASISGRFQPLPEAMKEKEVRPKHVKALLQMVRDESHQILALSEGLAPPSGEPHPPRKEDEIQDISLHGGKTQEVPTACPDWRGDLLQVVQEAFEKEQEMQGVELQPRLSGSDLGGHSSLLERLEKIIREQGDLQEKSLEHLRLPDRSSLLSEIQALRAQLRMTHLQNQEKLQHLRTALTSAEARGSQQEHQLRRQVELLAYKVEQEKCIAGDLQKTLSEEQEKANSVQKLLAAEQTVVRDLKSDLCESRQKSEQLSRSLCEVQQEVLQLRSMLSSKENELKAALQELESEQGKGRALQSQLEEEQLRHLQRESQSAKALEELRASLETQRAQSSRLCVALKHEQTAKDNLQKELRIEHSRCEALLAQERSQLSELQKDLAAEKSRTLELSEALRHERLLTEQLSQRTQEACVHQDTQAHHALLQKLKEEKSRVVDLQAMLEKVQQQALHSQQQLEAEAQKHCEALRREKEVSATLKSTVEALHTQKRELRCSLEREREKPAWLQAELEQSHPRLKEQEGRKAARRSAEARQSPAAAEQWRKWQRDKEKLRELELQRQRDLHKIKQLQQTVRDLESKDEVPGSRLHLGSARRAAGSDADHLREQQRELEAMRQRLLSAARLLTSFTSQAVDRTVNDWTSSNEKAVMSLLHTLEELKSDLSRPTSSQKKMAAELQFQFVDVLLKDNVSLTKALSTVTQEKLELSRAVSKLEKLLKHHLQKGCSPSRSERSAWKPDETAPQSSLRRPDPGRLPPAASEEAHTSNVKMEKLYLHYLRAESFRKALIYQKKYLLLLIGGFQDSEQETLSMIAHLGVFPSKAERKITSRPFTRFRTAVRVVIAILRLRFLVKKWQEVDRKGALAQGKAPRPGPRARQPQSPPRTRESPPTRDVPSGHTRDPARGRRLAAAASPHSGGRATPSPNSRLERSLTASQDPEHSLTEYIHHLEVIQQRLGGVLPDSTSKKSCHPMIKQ
UniProt Q8WUM4: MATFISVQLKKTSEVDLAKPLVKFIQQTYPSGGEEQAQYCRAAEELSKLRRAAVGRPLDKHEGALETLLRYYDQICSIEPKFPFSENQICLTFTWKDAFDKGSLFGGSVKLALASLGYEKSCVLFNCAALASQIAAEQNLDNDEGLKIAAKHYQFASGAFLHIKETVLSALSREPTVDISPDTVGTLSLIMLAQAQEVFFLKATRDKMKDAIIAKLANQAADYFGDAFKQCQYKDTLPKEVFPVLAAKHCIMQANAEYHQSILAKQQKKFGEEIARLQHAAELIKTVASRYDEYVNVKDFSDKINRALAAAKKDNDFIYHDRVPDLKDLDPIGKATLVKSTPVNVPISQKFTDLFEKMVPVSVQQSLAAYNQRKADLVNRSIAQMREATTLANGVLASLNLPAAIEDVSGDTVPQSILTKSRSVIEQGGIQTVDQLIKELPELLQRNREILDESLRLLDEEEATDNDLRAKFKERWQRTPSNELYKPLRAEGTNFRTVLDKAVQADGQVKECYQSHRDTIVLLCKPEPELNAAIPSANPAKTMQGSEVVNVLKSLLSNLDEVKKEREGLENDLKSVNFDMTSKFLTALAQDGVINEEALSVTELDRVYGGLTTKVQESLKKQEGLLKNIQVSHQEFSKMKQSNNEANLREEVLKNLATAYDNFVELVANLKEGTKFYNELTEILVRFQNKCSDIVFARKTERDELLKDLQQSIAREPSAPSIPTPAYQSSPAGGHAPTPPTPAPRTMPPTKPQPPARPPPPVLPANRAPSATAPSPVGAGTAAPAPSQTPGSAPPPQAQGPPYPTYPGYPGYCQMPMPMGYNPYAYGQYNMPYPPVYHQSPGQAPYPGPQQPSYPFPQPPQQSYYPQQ
UniProt Q15154: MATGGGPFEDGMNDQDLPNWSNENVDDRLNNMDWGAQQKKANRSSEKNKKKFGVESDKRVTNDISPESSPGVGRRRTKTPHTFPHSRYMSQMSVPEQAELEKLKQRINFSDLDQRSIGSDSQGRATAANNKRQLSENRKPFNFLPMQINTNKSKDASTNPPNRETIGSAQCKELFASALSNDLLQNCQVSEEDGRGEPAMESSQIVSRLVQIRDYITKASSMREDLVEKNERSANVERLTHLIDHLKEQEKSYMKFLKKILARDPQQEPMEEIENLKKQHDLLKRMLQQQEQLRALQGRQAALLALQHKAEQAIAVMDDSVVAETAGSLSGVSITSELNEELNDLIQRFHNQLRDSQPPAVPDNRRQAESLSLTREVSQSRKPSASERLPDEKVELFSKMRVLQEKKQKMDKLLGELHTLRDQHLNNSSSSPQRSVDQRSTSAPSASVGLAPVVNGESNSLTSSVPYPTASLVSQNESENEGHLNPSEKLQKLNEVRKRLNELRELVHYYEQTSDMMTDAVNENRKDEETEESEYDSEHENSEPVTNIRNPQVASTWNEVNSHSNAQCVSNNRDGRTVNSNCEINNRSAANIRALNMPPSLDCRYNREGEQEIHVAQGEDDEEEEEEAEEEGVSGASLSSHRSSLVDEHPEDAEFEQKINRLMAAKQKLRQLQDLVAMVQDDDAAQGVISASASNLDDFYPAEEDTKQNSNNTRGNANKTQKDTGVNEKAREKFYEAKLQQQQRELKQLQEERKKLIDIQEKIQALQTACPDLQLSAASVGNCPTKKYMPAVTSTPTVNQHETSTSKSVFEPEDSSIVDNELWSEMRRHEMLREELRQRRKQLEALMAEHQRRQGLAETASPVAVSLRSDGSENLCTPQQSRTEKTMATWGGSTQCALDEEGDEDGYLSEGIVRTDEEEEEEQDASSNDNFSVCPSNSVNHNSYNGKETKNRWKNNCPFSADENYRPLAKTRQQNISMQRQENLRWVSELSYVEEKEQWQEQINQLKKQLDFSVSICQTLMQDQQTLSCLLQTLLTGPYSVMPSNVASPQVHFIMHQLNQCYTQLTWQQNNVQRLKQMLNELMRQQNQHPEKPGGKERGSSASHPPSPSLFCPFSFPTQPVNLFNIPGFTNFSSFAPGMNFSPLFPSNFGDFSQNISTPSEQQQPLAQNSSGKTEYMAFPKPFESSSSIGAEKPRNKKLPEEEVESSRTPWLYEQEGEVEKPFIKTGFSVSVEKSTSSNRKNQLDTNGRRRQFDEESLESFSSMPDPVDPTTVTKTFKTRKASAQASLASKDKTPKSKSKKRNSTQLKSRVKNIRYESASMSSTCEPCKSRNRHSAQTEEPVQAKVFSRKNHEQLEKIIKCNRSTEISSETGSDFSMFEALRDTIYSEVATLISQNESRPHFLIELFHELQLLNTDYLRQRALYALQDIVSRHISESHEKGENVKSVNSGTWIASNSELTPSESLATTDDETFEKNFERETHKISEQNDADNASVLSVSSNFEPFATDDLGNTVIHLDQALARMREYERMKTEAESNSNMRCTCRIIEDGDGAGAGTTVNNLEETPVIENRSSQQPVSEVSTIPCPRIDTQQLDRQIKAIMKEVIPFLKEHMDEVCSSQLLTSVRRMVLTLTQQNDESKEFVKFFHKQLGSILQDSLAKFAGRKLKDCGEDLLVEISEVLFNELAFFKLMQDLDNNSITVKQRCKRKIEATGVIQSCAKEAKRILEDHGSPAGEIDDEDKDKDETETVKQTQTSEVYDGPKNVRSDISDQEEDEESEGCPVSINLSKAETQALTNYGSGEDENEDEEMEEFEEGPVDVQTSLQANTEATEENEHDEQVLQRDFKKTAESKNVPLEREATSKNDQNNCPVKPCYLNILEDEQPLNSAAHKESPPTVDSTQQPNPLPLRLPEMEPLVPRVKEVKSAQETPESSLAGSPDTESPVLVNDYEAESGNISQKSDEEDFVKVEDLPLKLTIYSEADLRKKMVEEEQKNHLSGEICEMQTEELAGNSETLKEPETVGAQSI
UniProt O00151: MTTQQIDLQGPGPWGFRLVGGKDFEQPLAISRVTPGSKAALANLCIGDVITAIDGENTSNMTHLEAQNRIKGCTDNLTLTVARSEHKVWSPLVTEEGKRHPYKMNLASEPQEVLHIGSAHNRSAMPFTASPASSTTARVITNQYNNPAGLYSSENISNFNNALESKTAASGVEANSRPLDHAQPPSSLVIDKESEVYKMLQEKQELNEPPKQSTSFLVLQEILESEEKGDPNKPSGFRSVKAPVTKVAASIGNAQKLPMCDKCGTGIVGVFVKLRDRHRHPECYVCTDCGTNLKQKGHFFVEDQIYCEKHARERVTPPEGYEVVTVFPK

| Target | probe-labelled cysteine peptide fold change |
| --- | --- |
| PDIA6_Q15084_55_EVIQSDSLWLVEFYAPWCGHCQR (UniProt Q15084) | -0.183 |
| PCBP2_Q15366-2_302_GYWAGLDASAQTTSHELTIPNDLIGCIIGR (UniProt Q15366) | 0.32 |
| PBK_Q96KB5_22_SVLCSTPTINIPASPFMQK (UniProt Q96KB5) | -0.0674 |
| PDE12_Q6L8Q7_348_ELTGYNADVICLQEVDR (UniProt Q6L8Q7) | 0.195 |
| PDXP_Q96GD0_171_EACAHLRDPECLLVATDRDPWHPLSDGSR (UniProt Q96GD0) | -0.186 |
| PDLIM7_Q9NR12_311_YLVALGHAYHPEEFVCSQCGK (UniProt Q9NR12) | -0.0151 |
| PDIA6_Q15084_291+297_RTCEEHQLCVVAVLPHILDTGAAGR (UniProt Q15084) | -0.134 |
| PDE12_Q6L8Q7_250_LHCTPGDGQR (UniProt Q6L8Q7) | 0.0594 |
| PAXIP1_Q6ZW49_671_CVTAHWLNTVLK (UniProt Q6ZW49) | 0.00423 |
| PDHB_P11177_249_PVGHCLEAAAVLSK (UniProt P11177) | 0.0744 |
| PDLIM2_Q96JY6_160_SFQSLACSPGLPAADR (UniProt Q96JY6) | -0.216 |
| PAXX_Q9BUH6_180_CPGESLINPGFK (UniProt Q9BUH6) | -0.392 |
| PCNT_O95613_321_CGQEAAELK (UniProt O95613) | 0.138 |
| PDZD8_Q8NEN9_667_DVTSETSCPTK (UniProt Q8NEN9) | -0.365 |
| PATZ1_Q9HBE1_610_KYPCPECGSFFR (UniProt Q9HBE1) | 0.149 |
| PDK1_Q15118_223_HIGSINPNCNVLEVIK (UniProt Q15118) | -0.0597 |
| PEAK3_Q6ZS72_318_GCATTGPPR (UniProt Q6ZS72) | -0.0167 |
| PBK_Q96KB5_70_INPICNDHYR (UniProt Q96KB5) | -0.139 |
| PDCD6IP_Q8WUM4_250_HCIMQANAEYHQSILAK (UniProt Q8WUM4) | 0.136 |

| Target | probe-labelled cysteine peptide fold change |
| --- | --- |
| PDS5B_Q9NTI5_676_VLSFTHPISFHSAETFESLLACLK (UniProt Q9NTI5) | 0.192 |
| PCM1_Q15154_1717_KIEATGVIQSCAK (UniProt Q15154) | -0.433 |
| PDLIM1_O00151_307_GHFFVEDQIYCEK (UniProt O00151) | -0.0541 |
| PCNT_O95613_70_EDSALCGGGDICK (UniProt O95613) | -0.178 |
| PDCD11_Q14690_694_VLCLSQSEGR (UniProt Q14690) | 0.181 |
| PDIA3_P30101_92_VDCTANTNTCNK (UniProt P30101) | 0.0862 |
| PDCD2L_Q9BRP1_191_LQDAVLGAAHPVPPGLPLFLPYYICVADEDDYRDFVNLDHAHSLLR (UniProt Q9BRP1) | 0.449 |
| PDLIM1_O00151_286_HPECYVCTDCGTNLK (UniProt O00151) | 0.0863 |
| PCM1_Q15154_582_TVNSNCEINNR (UniProt Q15154) | -0.438 |
| PARVG_Q9HBI0_314_VLYGLFCK (UniProt Q9HBI0) | 0.0747 |
| PDIA6_Q15084_297_TCEEHQLCVVAVLPHILDTGAAGR (UniProt Q15084) | 0.011 |
| PDCL3_Q9H2J4_127_QGIPLCALINQHLSGLAR (UniProt Q9H2J4) | 0.279 |
| PDE3B_Q13370_1059_IFCQLMHHLTENHK (UniProt Q13370) | -0.354 |
| PCYT1A_P49585_139_GFTVMNENERYDAVQHCR (UniProt P49585) | -0.254 |
| PDS5B_Q9NTI5_333_FNDIHVPIRLECVK (UniProt Q9NTI5) | 0.0355 |
| PCBP1_Q15365_109_LVVPATQCGSLIGK (UniProt Q15365) | -0.107 |
| PDPR_Q8NCN5_735_FFAFWGQDINNLTTPLECGR (UniProt Q8NCN5) | -0.247 |
| PDCD4_Q53EL6_227_LLSDLCGTVMSTTDVEK (UniProt Q53EL6) | 0.26 |
| PDCD6IP_Q8WUM4_691_CSDIVFAR (UniProt Q8WUM4) | -0.00307 |

Source: the supplement of paper PMC12067093, “Discovery and optimisation of a covalent ligand for TRIM25 and its application to targeted protein ubiquitination” (Chemical Science, 2025)
